PubChem BioAssay AID686943 | Drosophila RNAi Screening Center | 2013
In all, the deposit lists about 23,000 reagents; this is an unselected part of those that have a named target and a result. 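Extra replicates exist only for a retested subset of genes; insulin dose and duration not given; both raised and lowered dpERK matter.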 Not all columns of the deposit are shown. Not given: the amount of reagent, the time to read-out.

- Screen: 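Fly genes whose loss alters ERK activation after insulin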 (primary screen)
- Cells: Drosophila S2R+ haemocyte-like cells expressing YFP-tagged ERK (Rolled)
- Reagent: long dsRNA against Drosophila genes
- Conditions: insulin stimulation versus unstimulated cells; dose and duration not given
- Measurement: 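Antibody staining for doubly phosphorylated ERK divided by ERK-YFP signal, as plate z-scores, in insulin-treated and untreated cells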
- Reading the numbers: replicate 1, z-score of dpERK with insulin and replicate 2, z-score of dpERK with insulin: higher = more active ERK per ERK-YFP after insulin

Agpat4 (1-Acylglycerol-3-phosphate O-acyltransferase 4) [DRSC10446] → replicate 1, z-score of dpERK with insulin = -0.48; replicate 2, z-score of dpERK with insulin = -0.48
lncRNA:CR32660 (long non-coding RNA:CR32660) [DRSC22965] → replicate 1, z-score of dpERK with insulin = 0.67; replicate 2, z-score of dpERK with insulin = 0.43
CG14811 [DRSC17962] → replicate 1, z-score of dpERK with insulin = 0.46; replicate 2, z-score of dpERK with insulin = -0.36
poe (purity of essence) [DRSC03593] → replicate 1, z-score of dpERK with insulin = -1.68; replicate 2, z-score of dpERK with insulin = -1.17
ORY (Occludin-Related Y) [DRSC22883] → replicate 1, z-score of dpERK with insulin = 1.07; replicate 2, z-score of dpERK with insulin = 1.13
Gga [DRSC18260] → replicate 1, z-score of dpERK with insulin = 0.27; replicate 2, z-score of dpERK with insulin = 0.54
PH4alphaNE1 (prolyl-4-hydroxylase-alpha NE1) [DRSC16546] → replicate 1, z-score of dpERK with insulin = -0.76; replicate 2, z-score of dpERK with insulin = -0.53
Mrm2 (Mitochondrial rRNA methyltransferase 2) [DRSC14310] → replicate 1, z-score of dpERK with insulin = -0.03; replicate 2, z-score of dpERK with insulin = -0.48
Obp50a (Odorant-binding protein 50a) [DRSC22152] → replicate 1, z-score of dpERK with insulin = 0.47; replicate 2, z-score of dpERK with insulin = 0.2
Ance-5 [DRSC04055] → replicate 1, z-score of dpERK with insulin = 0.44; replicate 2, z-score of dpERK with insulin = 0.66
Golgin97 (Golgin 97) [DRSC06895] → replicate 1, z-score of dpERK with insulin = 0.07; replicate 2, z-score of dpERK with insulin = 0.31
ppk22 (pickpocket 22) [DRSC22093] → replicate 1, z-score of dpERK with insulin = -0.19; replicate 2, z-score of dpERK with insulin = 0.73

2 consecutive reagents already listed:
Mrm2 (Mitochondrial rRNA methyltransferase 2) [DRSC14310] → replicate 1, z-score of dpERK with insulin = -0.03; replicate 2, z-score of dpERK with insulin = -0.48
Obp50a (Odorant-binding protein 50a) [DRSC22152] → replicate 1, z-score of dpERK with insulin = 0.47; replicate 2, z-score of dpERK with insulin = 0.2
